Results deposited as PubChem BioAssay AID1259308 (NCATS, 2017).
The deposit covers about 59,000 reagents; shown is a part drawn at random. Of all reagents, about 1,510 (2.6%) got an active call. 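Calls use total luciferase alone and ignore viability, so some active siRNAs may act by altering cell number.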 A number with no mark means an inactive call. Reagents against one gene are numbered here. Not all columns of the deposit are shown.

- Assay: 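Genes whose loss raises luciferase production in HEK293 cells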 (primary screen)
- System: human HEK293 embryonic kidney cells stably expressing firefly luciferase (HEK-CMV-Luc2-Hygro)
- Reagent: single siRNA against human genes, 0.8 pmol siRNA per well
- Duration: 72 h
- Measured: 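Luciferase light (ONE-Glo) measured on one replicate plate set and viability (CellTiter-Glo) on the other, scaled to a negative control siRNA, with robust z-scores and luciferase per cell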
- Reading the numbers: total luciferase, z-score and total luciferase, % of control: higher = more reporter protein produced
- Rule for the call: 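An siRNA counts as active if its total luciferase robust z-score exceeds 3; genes with two or more such siRNAs out of three were retested with fresh siRNAs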
- Meaning of the calls: active = raised luciferase; inactive = no rise

C2orf66 (chromosome 2 open reading frame 66) #1 | total luciferase, z-score = 1.15; total luciferase, % of control = 105
C2orf66 (chromosome 2 open reading frame 66) #2 | total luciferase, z-score = -0.544; total luciferase, % of control = 71.1
C2orf66 (chromosome 2 open reading frame 66) #3 | total luciferase, z-score = -0.844; total luciferase, % of control = 65.1
WDR6 (WD repeat domain 6) #1 | total luciferase, z-score = -0.423; total luciferase, % of control = 73.5
WDR6 (WD repeat domain 6) #2 | total luciferase, z-score = 1.24; total luciferase, % of control = 106
WDR6 (WD repeat domain 6) #3 | total luciferase, z-score = 2.59; total luciferase, % of control = 133
ZMYND19 (zinc finger MYND-type containing 19) #1 | total luciferase, z-score = 1.76; total luciferase, % of control = 117
ZMYND19 (zinc finger MYND-type containing 19) #2 | total luciferase, z-score = 4.33 (active); total luciferase, % of control = 168
ZMYND19 (zinc finger MYND-type containing 19) #3 | total luciferase, z-score = -1.95; total luciferase, % of control = 43.1
UCMA (upper zone of growth plate and cartilage matrix associated) #1 | total luciferase, z-score = -1.51; total luciferase, % of control = 51.9
UCMA (upper zone of growth plate and cartilage matrix associated) #2 | total luciferase, z-score = 2.26; total luciferase, % of control = 127
UCMA (upper zone of growth plate and cartilage matrix associated) #3 | total luciferase, z-score = 0.271; total luciferase, % of control = 87.3

2 of these entries in another layout:
| gene knocked down | reagent | total luciferase, z-score | total luciferase, % of control |
| --- | --- | --- | --- |
| WDR6 (WD repeat domain 6) | 1 | -0.423 | 73.5 |
| WDR6 (WD repeat domain 6) | 2 | 1.24 | 106 |
